Assay results: the supplement of paper PMC10849652
Some of the results follow.

By UniProt entry, the sequences of proteins in these tests, tags left out. Where a name states a change or a piece, a line headed by the entry shows the natural chain unless it says otherwise.
UniProt Q14980: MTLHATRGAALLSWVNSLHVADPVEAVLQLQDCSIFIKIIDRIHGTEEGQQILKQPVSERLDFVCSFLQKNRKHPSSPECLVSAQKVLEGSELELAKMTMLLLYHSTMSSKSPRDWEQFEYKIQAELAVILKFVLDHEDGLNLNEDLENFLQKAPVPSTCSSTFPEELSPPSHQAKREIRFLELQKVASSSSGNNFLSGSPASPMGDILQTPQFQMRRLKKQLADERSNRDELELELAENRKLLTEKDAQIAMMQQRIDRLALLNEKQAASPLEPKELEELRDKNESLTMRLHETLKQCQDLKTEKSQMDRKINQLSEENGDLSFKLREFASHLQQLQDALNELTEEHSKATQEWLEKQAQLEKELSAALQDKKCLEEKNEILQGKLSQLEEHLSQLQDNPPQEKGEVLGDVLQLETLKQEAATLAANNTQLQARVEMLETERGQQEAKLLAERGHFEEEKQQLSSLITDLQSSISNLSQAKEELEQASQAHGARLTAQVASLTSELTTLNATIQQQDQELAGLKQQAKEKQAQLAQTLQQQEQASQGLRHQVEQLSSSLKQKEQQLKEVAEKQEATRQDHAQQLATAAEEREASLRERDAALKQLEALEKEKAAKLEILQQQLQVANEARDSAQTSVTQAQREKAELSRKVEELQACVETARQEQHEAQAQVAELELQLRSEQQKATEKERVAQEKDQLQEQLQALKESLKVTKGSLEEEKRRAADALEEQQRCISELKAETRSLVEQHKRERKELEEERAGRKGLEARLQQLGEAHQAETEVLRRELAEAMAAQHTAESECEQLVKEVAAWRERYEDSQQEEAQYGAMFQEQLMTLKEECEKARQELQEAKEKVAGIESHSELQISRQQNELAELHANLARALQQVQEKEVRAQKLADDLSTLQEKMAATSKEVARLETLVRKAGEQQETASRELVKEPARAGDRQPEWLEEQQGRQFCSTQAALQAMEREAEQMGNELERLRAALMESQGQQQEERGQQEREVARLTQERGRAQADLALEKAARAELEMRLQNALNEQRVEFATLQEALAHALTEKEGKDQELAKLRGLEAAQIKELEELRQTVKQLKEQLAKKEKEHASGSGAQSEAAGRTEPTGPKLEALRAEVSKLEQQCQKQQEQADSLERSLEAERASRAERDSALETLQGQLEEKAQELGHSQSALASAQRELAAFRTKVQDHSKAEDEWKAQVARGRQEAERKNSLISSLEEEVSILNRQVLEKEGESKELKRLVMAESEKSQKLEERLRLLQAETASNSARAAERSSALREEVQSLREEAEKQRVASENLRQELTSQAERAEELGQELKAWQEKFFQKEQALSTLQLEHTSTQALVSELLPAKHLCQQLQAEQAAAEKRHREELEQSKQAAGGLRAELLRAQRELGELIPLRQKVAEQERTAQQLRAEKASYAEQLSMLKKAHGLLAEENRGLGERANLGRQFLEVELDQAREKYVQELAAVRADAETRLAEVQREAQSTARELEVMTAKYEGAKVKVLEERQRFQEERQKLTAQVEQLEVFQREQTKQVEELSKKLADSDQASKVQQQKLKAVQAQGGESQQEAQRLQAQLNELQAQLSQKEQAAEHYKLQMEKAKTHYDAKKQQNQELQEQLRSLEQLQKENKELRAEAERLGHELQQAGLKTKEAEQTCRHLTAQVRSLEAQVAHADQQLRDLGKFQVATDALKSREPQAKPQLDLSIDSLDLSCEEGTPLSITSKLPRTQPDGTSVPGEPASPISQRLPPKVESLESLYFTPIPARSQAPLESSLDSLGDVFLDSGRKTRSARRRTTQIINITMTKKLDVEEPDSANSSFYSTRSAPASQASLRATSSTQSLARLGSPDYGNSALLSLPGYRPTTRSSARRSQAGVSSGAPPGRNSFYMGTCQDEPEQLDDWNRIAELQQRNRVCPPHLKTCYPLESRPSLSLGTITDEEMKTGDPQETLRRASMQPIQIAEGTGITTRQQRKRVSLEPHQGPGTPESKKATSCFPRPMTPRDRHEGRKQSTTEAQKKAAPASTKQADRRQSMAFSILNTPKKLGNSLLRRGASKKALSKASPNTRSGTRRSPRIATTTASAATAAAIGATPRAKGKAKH
UniProt Q15738: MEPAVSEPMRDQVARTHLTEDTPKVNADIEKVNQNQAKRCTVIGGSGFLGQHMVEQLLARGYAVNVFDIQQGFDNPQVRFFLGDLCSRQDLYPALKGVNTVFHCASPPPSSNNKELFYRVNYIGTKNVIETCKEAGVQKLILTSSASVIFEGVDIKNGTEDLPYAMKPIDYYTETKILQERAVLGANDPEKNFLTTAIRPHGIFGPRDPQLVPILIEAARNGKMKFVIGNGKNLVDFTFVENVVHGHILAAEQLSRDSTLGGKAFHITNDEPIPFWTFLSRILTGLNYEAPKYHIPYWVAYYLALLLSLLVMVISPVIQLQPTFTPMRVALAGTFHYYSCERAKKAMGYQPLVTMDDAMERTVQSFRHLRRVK
UniProt A8MXV4: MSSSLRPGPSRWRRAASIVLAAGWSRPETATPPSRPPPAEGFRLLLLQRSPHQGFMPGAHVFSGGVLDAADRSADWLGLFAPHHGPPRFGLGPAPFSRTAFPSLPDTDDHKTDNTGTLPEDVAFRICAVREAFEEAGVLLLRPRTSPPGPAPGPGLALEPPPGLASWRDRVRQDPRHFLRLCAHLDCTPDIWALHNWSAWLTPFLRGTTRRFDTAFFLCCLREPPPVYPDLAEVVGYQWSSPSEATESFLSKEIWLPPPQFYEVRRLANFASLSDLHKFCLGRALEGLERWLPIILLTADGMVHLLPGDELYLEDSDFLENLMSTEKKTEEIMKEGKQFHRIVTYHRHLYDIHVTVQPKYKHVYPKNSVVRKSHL
UniProt P15559, whole entry, looked up: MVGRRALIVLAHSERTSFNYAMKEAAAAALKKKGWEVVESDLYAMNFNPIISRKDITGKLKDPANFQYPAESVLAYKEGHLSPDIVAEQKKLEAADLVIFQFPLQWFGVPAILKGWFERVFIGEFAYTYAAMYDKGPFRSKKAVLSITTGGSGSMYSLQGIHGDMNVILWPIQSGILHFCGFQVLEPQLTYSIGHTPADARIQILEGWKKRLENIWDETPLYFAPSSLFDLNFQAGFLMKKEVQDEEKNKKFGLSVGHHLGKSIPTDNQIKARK
UniProt P40261: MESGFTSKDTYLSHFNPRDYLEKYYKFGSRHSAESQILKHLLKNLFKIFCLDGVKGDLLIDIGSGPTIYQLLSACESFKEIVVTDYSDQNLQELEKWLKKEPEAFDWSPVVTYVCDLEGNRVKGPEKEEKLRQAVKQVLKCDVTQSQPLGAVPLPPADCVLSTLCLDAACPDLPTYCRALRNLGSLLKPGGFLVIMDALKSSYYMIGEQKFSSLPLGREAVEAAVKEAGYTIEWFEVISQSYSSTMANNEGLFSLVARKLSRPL
UniProt O43847: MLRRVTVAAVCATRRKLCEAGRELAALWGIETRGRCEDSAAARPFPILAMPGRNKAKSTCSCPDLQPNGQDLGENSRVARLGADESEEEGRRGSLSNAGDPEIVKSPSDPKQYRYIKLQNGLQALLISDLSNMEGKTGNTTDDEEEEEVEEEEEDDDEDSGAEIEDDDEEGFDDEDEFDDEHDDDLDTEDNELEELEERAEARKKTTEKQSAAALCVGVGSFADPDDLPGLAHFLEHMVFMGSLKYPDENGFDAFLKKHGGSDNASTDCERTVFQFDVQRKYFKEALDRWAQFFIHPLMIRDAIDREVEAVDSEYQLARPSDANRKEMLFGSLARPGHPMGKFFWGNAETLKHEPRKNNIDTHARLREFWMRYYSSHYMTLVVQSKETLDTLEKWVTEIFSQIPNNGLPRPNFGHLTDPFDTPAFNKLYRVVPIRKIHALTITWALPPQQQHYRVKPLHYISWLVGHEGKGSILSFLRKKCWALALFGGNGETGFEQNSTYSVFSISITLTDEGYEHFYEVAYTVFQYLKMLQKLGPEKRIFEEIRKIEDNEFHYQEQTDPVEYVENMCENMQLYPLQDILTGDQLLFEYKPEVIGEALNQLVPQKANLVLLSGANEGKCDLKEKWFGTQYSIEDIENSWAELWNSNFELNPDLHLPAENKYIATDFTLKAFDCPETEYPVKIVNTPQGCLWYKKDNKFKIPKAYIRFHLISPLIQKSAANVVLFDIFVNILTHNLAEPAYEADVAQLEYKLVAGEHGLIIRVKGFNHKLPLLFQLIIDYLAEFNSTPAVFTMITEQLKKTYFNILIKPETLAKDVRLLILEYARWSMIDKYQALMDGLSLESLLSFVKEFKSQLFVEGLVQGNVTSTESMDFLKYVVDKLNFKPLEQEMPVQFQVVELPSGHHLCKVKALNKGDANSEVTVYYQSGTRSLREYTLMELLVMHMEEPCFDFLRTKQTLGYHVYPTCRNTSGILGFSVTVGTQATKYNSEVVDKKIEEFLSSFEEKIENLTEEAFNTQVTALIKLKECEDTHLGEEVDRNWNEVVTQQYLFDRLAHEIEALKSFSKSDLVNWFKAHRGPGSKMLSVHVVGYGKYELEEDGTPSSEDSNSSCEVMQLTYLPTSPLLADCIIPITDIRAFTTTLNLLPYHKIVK
UniProt Q7Z417: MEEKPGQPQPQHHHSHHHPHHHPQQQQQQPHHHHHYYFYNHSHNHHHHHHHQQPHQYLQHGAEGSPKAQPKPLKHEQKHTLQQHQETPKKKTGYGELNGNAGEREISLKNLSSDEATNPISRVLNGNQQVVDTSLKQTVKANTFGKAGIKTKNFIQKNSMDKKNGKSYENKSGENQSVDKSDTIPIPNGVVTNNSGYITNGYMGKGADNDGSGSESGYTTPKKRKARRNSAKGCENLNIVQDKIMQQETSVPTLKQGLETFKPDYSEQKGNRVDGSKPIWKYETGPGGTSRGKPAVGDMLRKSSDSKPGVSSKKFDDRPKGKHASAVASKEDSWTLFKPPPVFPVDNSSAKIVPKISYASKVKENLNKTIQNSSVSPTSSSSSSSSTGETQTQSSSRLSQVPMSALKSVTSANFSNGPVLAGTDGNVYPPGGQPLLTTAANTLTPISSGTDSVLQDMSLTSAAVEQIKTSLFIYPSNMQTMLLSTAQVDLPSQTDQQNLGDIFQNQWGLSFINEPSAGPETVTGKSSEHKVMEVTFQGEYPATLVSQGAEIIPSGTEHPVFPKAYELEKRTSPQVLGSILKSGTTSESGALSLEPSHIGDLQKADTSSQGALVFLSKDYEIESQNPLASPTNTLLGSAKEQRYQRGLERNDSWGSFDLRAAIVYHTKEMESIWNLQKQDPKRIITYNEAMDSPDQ
UniProt Q9NXX6: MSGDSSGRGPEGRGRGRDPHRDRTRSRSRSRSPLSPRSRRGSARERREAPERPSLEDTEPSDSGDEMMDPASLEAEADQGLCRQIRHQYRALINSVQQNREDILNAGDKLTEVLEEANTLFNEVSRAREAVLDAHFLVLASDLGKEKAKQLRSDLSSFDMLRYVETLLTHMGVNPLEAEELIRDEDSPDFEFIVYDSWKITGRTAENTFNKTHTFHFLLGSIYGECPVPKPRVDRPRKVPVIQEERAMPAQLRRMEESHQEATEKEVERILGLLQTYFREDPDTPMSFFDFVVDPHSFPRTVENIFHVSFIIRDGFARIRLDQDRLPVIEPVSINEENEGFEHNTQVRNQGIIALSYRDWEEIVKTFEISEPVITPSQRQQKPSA
UniProt P55786: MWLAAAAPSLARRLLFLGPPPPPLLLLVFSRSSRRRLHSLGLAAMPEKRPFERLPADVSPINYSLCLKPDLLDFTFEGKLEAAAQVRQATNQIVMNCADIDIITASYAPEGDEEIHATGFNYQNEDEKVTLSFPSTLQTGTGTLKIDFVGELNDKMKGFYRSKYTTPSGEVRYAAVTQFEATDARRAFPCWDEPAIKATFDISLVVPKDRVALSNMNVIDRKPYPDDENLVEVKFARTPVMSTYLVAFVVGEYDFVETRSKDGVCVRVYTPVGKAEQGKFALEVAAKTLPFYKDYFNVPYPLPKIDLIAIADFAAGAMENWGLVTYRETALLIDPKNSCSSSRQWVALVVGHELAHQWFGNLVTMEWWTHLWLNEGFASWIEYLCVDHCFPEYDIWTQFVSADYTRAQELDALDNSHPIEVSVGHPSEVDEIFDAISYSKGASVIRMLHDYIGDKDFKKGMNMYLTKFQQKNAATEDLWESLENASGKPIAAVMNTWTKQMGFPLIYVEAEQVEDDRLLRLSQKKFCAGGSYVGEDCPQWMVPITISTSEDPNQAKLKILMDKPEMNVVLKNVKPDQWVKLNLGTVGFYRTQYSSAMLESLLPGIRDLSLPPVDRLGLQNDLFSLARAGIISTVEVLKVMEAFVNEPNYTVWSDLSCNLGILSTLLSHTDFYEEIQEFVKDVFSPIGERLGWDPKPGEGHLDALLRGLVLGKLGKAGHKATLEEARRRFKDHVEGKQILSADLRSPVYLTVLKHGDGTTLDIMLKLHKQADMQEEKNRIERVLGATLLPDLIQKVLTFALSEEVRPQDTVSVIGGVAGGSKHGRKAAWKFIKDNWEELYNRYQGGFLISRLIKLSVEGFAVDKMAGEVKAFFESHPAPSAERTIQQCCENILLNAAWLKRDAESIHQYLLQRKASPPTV

Experiments:
Assay in all cases: log2 fold change, soluble protein after heating vs DMSO (PISA); higher = thermal stabilisation; K562 lysate, 10 uM; active = over 0.2 and 3.5 SD of the protein, either way, in both replicates (recomputed)
erlotinib = compound: C#Cc1cccc(Nc2ncnc3cc(OCCOC)c(OCCOC)cc23)c1 [erlotinib]
Procedure, shortened: (§1)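 Pellets of K562 cells were dounce-homogenised in PBS pH 7.4 with 1 mM MgCl2, and the crude extract was held at 1 mg/mL protein for a 30 min treatment with 10 μM compound. Aliquots were heated for 3 min over 48°C-58°C and pooled before NP-40 was added to 0.5% at 4°C. The supernatant from 21,000xg for 90 min was quantified by TMTpro 16plex LC-MS/MS with channel sums equalised. Values are reported from duplicates as log-two fold change in thermal stability relative to solvent controls.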

[1] = compound: C/C(=N\NC(=O)C1=CC(=CC=C1)S(=O)(=O)N2CCOCC2)/C3=C(C=CC(=C3)Cl)O
Procedure, shortened: as §1

[2] = compound: C1=CC(=CC=C1C2=NC3=C(N2)C=C(C=C3)C(=O)N)OC4=CC=C(C=C4)Cl
Procedure, shortened: as §1

[3] = compound: C1=CC2=C(C=CC(=C2)/C=C\3/C(=O)NC(=NCC4=CC=CS4)S3)N=C1
Procedure, shortened: as §1

[4] = compound: C1=CC2=NC=CN=C2C=C1/C=C/3\C(=O)NC(=O)S3
Procedure, shortened: as §1

[5] = compound: C1=CC=C(C=C1)C2=NC(=C(N2)C3=CC=NC=C3)C4=CC(=C(C=C4)Cl)O
Procedure, shortened: as §1

[6] = compound: C1=CC=C2C(=C1)C3=NNC4=CC=CC(=C43)C2=O
Procedure, shortened: as §1

[7] = compound: C1CCN(C1)C(=O)NC2=CC=CC(=C2)NC3=NC=C(C(=N3)NCCC4=CN=CN4)Br
Procedure, shortened: as §1

[8] = compound: C1CN(CCC1(CC2=CC=C(C=C2)Cl)N)C3=NC=NC4=C3C=CN4
Procedure, shortened: as §1

IRAK-1-4 Inhibitor I = compound: C1COCCN1CCN2C3=CC=CC=C3N=C2NC(=O)C4=CC(=CC=C4)[N+](=O)[O-] [IRAK-1-4 Inhibitor I]
Procedure, shortened: as §1

ibrutinib = compound: C=CC(=O)N1CCC[C@@H](n2nc(-c3ccc(Oc4ccccc4)cc3)c3c(N)ncnc32)C1 [ibrutinib]
Procedure, shortened: as §1

[9] = compound: CC(=O)c1cnc2ccc(-c3cc(Cl)c(O)c(Cl)c3)nc2c1N[C@H]1CC[C@H](CN(C)C)CC1
Procedure, shortened: as §1

ralimetinib = compound: CC(C)(C)Cn1c(N)nc2ccc(-c3[nH]c(C(C)(C)C)nc3-c3ccc(F)cc3)nc21 [ralimetinib]
Procedure, shortened: as §1

[10] = compound: CC(C)(O)CC(=O)NCCn1ccc2ncnc(Nc3ccc(Oc4cccc(C(F)(F)F)c4)c(Cl)c3)c21
Procedure, shortened: as §1

[11] = compound: CC(C)C1=C2N=C(C=C(N2N=C1)NCC3=CC=CC=C3)NCCCCCCN
Procedure, shortened: as §1

[12] = compound: CC1=C(C(CC(=O)N1)C2=CC=C(C=C2)C(F)(F)F)C(=O)NC3=C(C=C4C(=C3)C=NN4)F
Procedure, shortened: as §1

[13] = compound: CC1=C(C2=C(C=C1)C(=O)C3=CC=CC=C3N2CCCN)C
Procedure, shortened: as §1

[14] = compound: CC1=C(C=C(C=C1)NC(=O)C2=CC(=CC=C2)C(C)(C)C#N)NC3=CC4=C(C=C3)N=CN(C4=O)C
Procedure, shortened: as §1

[15] = compound: CC1=C(C=C(C=C1)NC(=O)C2=CC(=CC=C2)N(C)C)NC(=O)C3=CC=C(C=C3)O
Procedure, shortened: as §1

[16] = compound: CC1=CC=C(C=C1)SC2=C3C=C(SC3=CN=C2)C(=O)N
Procedure, shortened: as §1

Measured: log2 fold change

NOC2L (UniProt Q9Y3T9)
inactive: erlotinib -0.036 | [1] -0.013 | [2] -0.018 | [3] -0.029 | [4] 0.027 | [5] 0.031 | [6] 0.077 | [7] -0.009 | [8] -0.004 | IRAK-1-4 Inhibitor I -0.046 | ibrutinib -0.047 | [9] 0.015 | ralimetinib 0.047 | [10] -0.005 | [11] 0.026 | [12] 0.014 | [13] -0.074 | [14] -0.02 | [15] 0.021 | [16] 0.014

NOP53 (UniProt Q9NZM5)
inactive: erlotinib -0.059 | [1] -0.022 | [2] -0.021 | [3] 0.115 | [4] -0.001 | [5] 0.002 | [6] -0.081 | [7] -0.035 | [8] -0.001 | IRAK-1-4 Inhibitor I 0.017 | ibrutinib -0.129 | [9] -0.033 | ralimetinib -0.008 | [10] 0.043 | [11] 0.012 | [12] -0.209 | [13] -0.049 | [14] -0.03 | [15] -0.013 | [16] 0.01

NUMA1 (UniProt Q14980)
inactive: erlotinib -0.019 | [1] 0.028 | [2] -0.007 | [3] -0.029 | [4] -0.019 | [5] 0.013 | [6] 0.009 | [7] -0.01 | [8] -0.012 | IRAK-1-4 Inhibitor I -0.016 | ibrutinib 0.021 | [9] 0.013 | ralimetinib 0.006 | [10] -0.016 | [11] -0.01 | [12] 0.016 | [13] -0.01 | [14] 0.011 | [15] 0.001 | [16] 0.02

Pulled one by one from above (2):
NOP53 (UniProt Q9NZM5)
inactive: erlotinib -0.059 | [1] -0.022 | [2] -0.021 | [3] 0.115 | [4] -0.001 | [5] 0.002 | [6] -0.081 | [7] -0.035 | [8] -0.001 | IRAK-1-4 Inhibitor I 0.017 | ibrutinib -0.129 | [9] -0.033 | ralimetinib -0.008 | [10] 0.043 | [11] 0.012 | [12] -0.209 | [13] -0.049 | [14] -0.03 | [15] -0.013 | [16] 0.01

NUMA1 (UniProt Q14980)
inactive: erlotinib -0.019 | [1] 0.028 | [2] -0.007 | [3] -0.029 | [4] -0.019 | [5] 0.013 | [6] 0.009 | [7] -0.01 | [8] -0.012 | IRAK-1-4 Inhibitor I -0.016 | ibrutinib 0.021 | [9] 0.013 | ralimetinib 0.006 | [10] -0.016 | [11] -0.01 | [12] 0.016 | [13] -0.01 | [14] 0.011 | [15] 0.001 | [16] 0.02

(further entries)

NSDHL (UniProt Q15738)
inactive: erlotinib 0.007 | [1] 0.119 | [2] -0.047 | [3] 0 | [4] 0.026 | [5] -0.002 | [6] 0.014 | [7] -0.043 | [8] 0.037 | IRAK-1-4 Inhibitor I 0.057 | ibrutinib 0.063 | [9] -0.009 | ralimetinib -0.021 | [10] 0.005 | [11] -0.01 | [12] -0.006 | [13] 0.007 | [14] -0.013 | [15] -0.05 | [16] -0.006

NUDT16 (UniProt Q96DE0)
inactive: erlotinib 0.009 | [1] 0.072 | [2] 0.026 | [3] 0.08 | [4] -0.009 | [5] -0.004 | [6] -0.027 | [7] -0.014 | [8] 0.027 | IRAK-1-4 Inhibitor I 0.057 | ibrutinib 0.045 | [9] -0.006 | ralimetinib -0.011 | [10] -0.007 | [11] -0.038 | [12] -0.025 | [13] -0.051 | [14] 0.036 | [15] -0.007 | [16] 0.002

NPLOC4 isoform 2 (UniProt Q8TAT6)
inactive: erlotinib -0.022 | [1] 0.032 | [2] -0.004 | [3] 0.001 | [4] -0.012 | [5] 0.011 | [6] -0.016 | [7] -0.012 | [8] 0.007 | IRAK-1-4 Inhibitor I 0.001 | ibrutinib -0.016 | [9] -0.015 | ralimetinib -0.01 | [10] -0.003 | [11] 0.027 | [12] -0.005 | [13] -0.009 | [14] 0.062 | [15] 0.018 | [16] -0.015

NUDT19 (UniProt A8MXV4)
inactive: erlotinib -0.007 | [1] 0.056 | [2] 0.002 | [3] -0.021 | [4] 0.037 | [5] 0 | [6] 0.005 | [7] 0.013 | [8] -0.003 | IRAK-1-4 Inhibitor I 0.02 | ibrutinib -0.01 | [9] 0.133 | ralimetinib 0.024 | [10] 0.025 | [11] -0.033 | [12] 0 | [13] 0.029 | [14] -0.002 | [15] -0.007 | [16] -0.016

NRBF2 (UniProt Q96F24)
inactive: erlotinib 0.038 | [1] -0.073 | [2] -0.033 | [3] -0.016 | [4] -0.025 | [5] 0.024 | [6] 0.057 | [7] 0.049 | [8] -0.014 | IRAK-1-4 Inhibitor I -0.065 | ibrutinib -0.013 | [9] 0.011 | ralimetinib 0.005 | [10] 0.027 | [11] 0.026 | [12] -0.001 | [13] -0.031 | [14] 0.005 | [15] -0.024 | [16] 0.006

NQO1 (UniProt P15559)
inactive: erlotinib -0.033 | [1] 0.081 | [2] 0.055 | [3] -0.08 | [4] -0.02 | [5] -0.022 | [6] -0.192 | [7] 0.005 | [8] 0.006 | IRAK-1-4 Inhibitor I -0.017 | ibrutinib 0.009 | [9] -0.003 | ralimetinib 0.033 | [10] 0.081 | [11] -0.009 | [12] 0.001 | [13] 0.159 | [14] 0.038 | [15] -0.025 | [16] 0.067

NNMT (UniProt P40261)
inactive: erlotinib -0.015 | [1] 0.003 | [2] 0.045 | [3] -0.001 | [4] -0.003 | [5] 0.032 | [6] -0.019 | [7] -0.002 | [8] -0.006 | IRAK-1-4 Inhibitor I -0.024 | ibrutinib -0.026 | [9] -0.037 | ralimetinib 0.011 | [10] -0.019 | [11] -0.05 | [12] -0.053 | [13] 0.026 | [14] 0.06 | [15] 0.016 | [16] -0.034

NRDC isoform 2 (UniProt O43847)
inactive: erlotinib 0.002 | [1] 0.011 | [2] 0.002 | [3] -0.014 | [4] 0.005 | [5] -0.001 | [6] 0.014 | [7] 0.006 | [8] -0.003 | IRAK-1-4 Inhibitor I 0.008 | ibrutinib -0.009 | [9] 0.001 | ralimetinib 0.012 | [10] -0.004 | [11] -0.012 | [12] 0.002 | [13] -0.003 | [14] 0.004 | [15] -0.006 | [16] 0.009

NUFIP2 (UniProt Q7Z417)
inactive: erlotinib 0.003 | [1] -0.122 | [2] 0.043 | [3] 0.016 | [4] -0.039 | [5] 0.027 | [6] -0.008 | [7] 0.01 | [8] -0.02 | IRAK-1-4 Inhibitor I -0.001 | ibrutinib 0.02 | [9] -0.021 | ralimetinib -0.033 | [10] -0.046 | [11] 0.034 | [12] 0.028 | [13] 0.047 | [14] -0.051 | [15] 0.003 | [16] -0.022

NSMCE4A (UniProt Q9NXX6)
inactive: erlotinib 0.01 | [1] -0.054 | [2] -0.003 | [3] 0.013 | [4] -0.013 | [5] 0.008 | [6] -0.044 | [7] -0.008 | [8] 0.039 | IRAK-1-4 Inhibitor I 0.034 | ibrutinib -0.089 | [9] 0.021 | ralimetinib 0.034 | [10] 0.015 | [11] -0.023 | [12] 0.021 | [13] 0.054 | [14] -0.01 | [15] -0.024 | [16] 0.032

NOL7 (UniProt Q9UMY1)
inactive: erlotinib -0.055 | [1] -0.026 | [2] -0.028 | [3] -0.008 | [4] -0.087 | [5] 0.045 | [6] -0.012 | [7] -0.013 | [8] -0.034 | IRAK-1-4 Inhibitor I -0.042 | ibrutinib 0.069 | [9] 0.02 | ralimetinib 0.042 | [10] 0.064 | [11] -0.003 | [12] -0.026 | [13] -0.028 | [14] 0.087 | [15] -0.064 | [16] 0.041

NPEPPS (UniProt P55786)
inactive: erlotinib 0.002 | [1] -0.008 | [2] 0.01 | [3] -0.003 | [4] -0.006 | [5] 0.009 | [6] 0.016 | [7] 0.007 | [8] 0.006 | IRAK-1-4 Inhibitor I 0.023 | ibrutinib 0.007 | [9] -0.01 | ralimetinib -0.006 | [10] -0.003 | [11] -0.002 | [12] -0.003 | [13] 0.004 | [14] 0.007 | [15] 0.01 | [16] -0.005

NTHL1 (UniProt P78549)
inactive: erlotinib 0.128 | [1] 0.171 | [2] -0.013 | [3] -0.086 | [4] 0.213 | [5] 0.069 | [6] 0.022 | [7] -0.022 | [8] 0.012 | IRAK-1-4 Inhibitor I 0.033 | ibrutinib 0 | [9] -0.157 | ralimetinib -0.145 | [10] 0.015 | [11] 0.03 | [12] -0.089 | [13] -0.082 | [14] -0.158 | [15] 0.072 | [16] -0.076
